Reference: PubChem BioAssay AID1508597 (Cure First, 2020)

Aim: 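Knock-downs altering ovarian cancer cell survival with or without PARP inhibitor rucaparib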 (primary screen)
System: human ovarian carcinoma lines grown from tumours: OCI-P5x (papillary serous) and OCI-C5x (clear cell)
Reagents: siRNA pool against human genes, 1.25 pmol siRNA per well
Time to read-out: 72 h or 96 h, depending on the cell culture
Treatment: rucaparib 20 µM (about IC30) or vehicle, present until read-out
Rucaparib or vehicle: Rucaparib
Cell line: OCI-C5x (clear cell)
Measured: 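Luminescent ATP-based viability assay read 72 or 96 h after transfection, depending on culture, given as normalised percent viability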
Reading the numbers: viability, normalised: higher = more viable cells remaining
Call rule: 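Active when normalised viability falls below 80 percent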
Calls: active = viability under 80%; inactive = viability 80% or more
Shown is an unselected part of the about 2,100 reagents, in one setting of the screen. 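Calls flag viability under 80% in either arm, not effects specific to rucaparib; the reference for percent is not stated.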 A reagent listed more than once was tested more than once; the source does not tell the runs apart. Reagent sequences are not shown. Not given: the 100% reference.

gene | technical replicate | viability, normalised (%) | Call
CHD2 | 1 | 67.6 | active
CHD2 | 2 | 52.1 | active
CHD2 | 3 | 59.4 | active
MED27 | 1 | 56.2 | active
MED27 | 2 | 38.8 | active
MED27 | 3 | 50.1 | active
PDK2 | 1 | 46.9 | active
PDK2 | 2 | 50.9 | active
PDK2 | 3 | 47.3 | active
PIKFYVE | 1 | 60.7 | active
PIKFYVE | 2 | 52 | active
PIKFYVE | 3 | 55.8 | active
RBBP4 | 1 | 55.8 | active
RBBP4 | 2 | 35.8 | active
RBBP4 | 3 | 32.9 | active
SBDS | 1 | 72 | active
SBDS | 2 | 72.4 | active
SBDS | 3 | 66.6 | active
SUPT5H | 1 | 61.9 | active
SUPT5H | 2 | 42.3 | active
SUPT5H | 3 | 50.9 | active
SUV39H2 | 1 | 40.9 | active
SUV39H2 | 2 | 44.5 | active
SUV39H2 | 3 | 40.8 | active
XRCC2 | 1 | 39 | active
XRCC2 | 2 | 33.9 | active
XRCC2 | 3 | 38.2 | active
PDE8B | 1 | 60.7 | active
PDE8B | 2 | 74.7 | active
PDE8B | 3 | 51.6 | active
CAMK1 | 1 | 72.6 | active
CAMK1 | 2 | 68.1 | active
CAMK1 | 3 | 79 | active
HDGFL2 | 1 | 57.6 | active
HDGFL2 | 2 | 33.6 | active
HDGFL2 | 3 | 44.1 | active
PHF7 | 1 | 43.6 | active
PHF7 | 2 | 52.9 | active
PHF7 | 3 | 32.9 | active
NDC80 | 1 | 56.1 | active
NDC80 | 2 | 42.6 | active
NDC80 | 3 | 55.1 | active
POLB | 1 | 49 | active
POLB | 2 | 40.2 | active
POLB | 3 | 56.4 | active
PDGFRB | 1 | 49.6 | active
PDGFRB | 2 | 51.3 | active
PDGFRB | 3 | 71.3 | active
DCP2 | 1 | 46.5 | active
DCP2 | 2 | 46.9 | active
DCP2 | 3 | 39.4 | active
GK2 | 1 | 46.9 | active
GK2 | 2 | 44.8 | active
GK2 | 3 | 34.2 | active
RPS6KA2 | 1 | 50 | active
RPS6KA2 | 2 | 55.3 | active
RPS6KA2 | 3 | 48.3 | active
SETDB1 | 1 | 44.8 | active
SETDB1 | 2 | 36.8 | active
SETDB1 | 3 | 39 | active
KDM4D | 1 | 37 | active
KDM4D | 2 | 28.1 | active
KDM4D | 3 | 26.5 | active
CAV2 | 1 | 40 | active
CAV2 | 2 | 31.6 | active
CAV2 | 3 | 39.1 | active
COASY | 1 | 47.1 | active
COASY | 2 | 37 | active
COASY | 3 | 58.1 | active
ABL1 | 1 | 42.5 | active
ABL1 | 1 | 62.3 | active
ABL1 | 2 | 80.1 | inactive
ABL1 | 2 | 42.1 | active
ABL1 | 3 | 62 | active
ABL1 | 3 | 59.1 | active
